Here are results for 29 targets from the supplement of paper PMC10849652.

Protein sequences, listed by entry. Tags and fused reporters are not part of them. Lines headed by an entry give the natural chain unless they say otherwise; changes in a name come on top.
UniProt Q6P9F7: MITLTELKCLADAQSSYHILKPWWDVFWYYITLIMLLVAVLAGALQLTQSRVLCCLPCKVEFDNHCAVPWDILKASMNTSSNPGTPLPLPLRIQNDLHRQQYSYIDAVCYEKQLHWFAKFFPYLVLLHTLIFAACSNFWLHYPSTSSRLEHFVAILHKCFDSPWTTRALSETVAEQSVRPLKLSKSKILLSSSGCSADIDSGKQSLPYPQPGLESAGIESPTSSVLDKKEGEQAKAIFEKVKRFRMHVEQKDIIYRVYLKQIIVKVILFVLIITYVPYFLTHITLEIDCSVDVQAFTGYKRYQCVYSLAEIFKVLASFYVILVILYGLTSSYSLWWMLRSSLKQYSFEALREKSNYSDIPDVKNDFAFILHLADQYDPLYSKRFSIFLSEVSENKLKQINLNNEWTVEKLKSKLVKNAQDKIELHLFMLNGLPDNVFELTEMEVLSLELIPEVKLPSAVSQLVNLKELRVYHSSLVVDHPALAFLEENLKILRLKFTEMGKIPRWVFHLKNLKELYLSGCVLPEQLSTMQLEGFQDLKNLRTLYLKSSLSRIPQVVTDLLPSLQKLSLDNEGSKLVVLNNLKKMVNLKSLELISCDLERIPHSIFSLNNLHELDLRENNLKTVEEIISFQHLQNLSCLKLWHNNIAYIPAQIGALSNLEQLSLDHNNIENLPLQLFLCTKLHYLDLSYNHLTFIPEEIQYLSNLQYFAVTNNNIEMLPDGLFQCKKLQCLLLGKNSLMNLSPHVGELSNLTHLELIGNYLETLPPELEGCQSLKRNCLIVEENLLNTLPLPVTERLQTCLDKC
UniProt P43355: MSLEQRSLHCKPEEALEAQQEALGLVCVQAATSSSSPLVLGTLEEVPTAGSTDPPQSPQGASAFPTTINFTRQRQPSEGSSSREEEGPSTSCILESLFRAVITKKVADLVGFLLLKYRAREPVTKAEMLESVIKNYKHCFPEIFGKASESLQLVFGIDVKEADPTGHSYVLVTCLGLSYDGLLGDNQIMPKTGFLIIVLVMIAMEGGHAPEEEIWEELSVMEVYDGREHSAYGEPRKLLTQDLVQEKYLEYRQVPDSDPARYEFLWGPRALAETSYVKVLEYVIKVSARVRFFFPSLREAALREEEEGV
UniProt Q99759: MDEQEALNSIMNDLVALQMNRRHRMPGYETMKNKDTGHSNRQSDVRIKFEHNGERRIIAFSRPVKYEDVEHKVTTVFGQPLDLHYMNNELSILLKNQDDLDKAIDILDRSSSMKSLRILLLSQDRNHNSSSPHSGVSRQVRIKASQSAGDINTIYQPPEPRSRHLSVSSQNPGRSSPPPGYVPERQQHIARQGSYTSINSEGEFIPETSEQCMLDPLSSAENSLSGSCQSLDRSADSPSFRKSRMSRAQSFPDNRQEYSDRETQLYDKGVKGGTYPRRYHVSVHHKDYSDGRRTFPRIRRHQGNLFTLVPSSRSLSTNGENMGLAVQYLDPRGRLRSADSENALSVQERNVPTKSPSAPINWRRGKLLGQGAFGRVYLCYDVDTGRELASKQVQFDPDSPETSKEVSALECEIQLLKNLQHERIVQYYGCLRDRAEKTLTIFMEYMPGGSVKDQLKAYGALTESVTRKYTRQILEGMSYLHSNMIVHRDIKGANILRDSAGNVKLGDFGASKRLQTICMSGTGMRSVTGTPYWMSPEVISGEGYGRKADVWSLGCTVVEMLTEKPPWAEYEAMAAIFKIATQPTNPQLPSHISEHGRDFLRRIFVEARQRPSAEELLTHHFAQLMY
UniProt O43325: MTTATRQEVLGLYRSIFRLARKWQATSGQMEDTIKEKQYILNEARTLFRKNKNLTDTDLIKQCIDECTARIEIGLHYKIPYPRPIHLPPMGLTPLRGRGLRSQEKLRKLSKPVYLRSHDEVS
UniProt Q92585: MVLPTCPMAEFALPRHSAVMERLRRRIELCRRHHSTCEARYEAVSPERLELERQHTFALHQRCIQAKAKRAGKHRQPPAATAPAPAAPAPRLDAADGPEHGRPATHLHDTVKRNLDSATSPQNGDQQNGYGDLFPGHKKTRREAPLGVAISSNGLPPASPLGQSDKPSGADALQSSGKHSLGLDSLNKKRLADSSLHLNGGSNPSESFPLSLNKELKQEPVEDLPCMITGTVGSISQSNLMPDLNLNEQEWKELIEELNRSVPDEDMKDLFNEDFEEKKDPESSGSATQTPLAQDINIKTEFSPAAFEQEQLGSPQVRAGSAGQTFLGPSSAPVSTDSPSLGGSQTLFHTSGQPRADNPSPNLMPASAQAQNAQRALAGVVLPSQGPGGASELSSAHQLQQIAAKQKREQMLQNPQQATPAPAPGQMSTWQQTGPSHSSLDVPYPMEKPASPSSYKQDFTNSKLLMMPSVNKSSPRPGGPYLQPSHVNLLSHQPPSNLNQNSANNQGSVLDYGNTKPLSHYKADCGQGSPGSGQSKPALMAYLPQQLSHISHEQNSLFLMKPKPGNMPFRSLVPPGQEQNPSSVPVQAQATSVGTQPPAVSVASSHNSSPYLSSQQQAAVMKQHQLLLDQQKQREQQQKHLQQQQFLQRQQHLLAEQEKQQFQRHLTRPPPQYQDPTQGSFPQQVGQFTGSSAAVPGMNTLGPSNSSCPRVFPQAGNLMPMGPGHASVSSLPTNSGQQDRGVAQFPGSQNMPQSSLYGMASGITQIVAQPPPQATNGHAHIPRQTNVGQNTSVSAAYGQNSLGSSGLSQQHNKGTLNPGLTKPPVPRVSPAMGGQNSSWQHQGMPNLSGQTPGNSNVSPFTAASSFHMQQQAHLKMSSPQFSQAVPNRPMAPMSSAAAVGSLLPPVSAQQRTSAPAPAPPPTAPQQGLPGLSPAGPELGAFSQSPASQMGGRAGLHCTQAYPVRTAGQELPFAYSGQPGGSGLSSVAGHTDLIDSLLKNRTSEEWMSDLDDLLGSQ
UniProt Q8IVH8: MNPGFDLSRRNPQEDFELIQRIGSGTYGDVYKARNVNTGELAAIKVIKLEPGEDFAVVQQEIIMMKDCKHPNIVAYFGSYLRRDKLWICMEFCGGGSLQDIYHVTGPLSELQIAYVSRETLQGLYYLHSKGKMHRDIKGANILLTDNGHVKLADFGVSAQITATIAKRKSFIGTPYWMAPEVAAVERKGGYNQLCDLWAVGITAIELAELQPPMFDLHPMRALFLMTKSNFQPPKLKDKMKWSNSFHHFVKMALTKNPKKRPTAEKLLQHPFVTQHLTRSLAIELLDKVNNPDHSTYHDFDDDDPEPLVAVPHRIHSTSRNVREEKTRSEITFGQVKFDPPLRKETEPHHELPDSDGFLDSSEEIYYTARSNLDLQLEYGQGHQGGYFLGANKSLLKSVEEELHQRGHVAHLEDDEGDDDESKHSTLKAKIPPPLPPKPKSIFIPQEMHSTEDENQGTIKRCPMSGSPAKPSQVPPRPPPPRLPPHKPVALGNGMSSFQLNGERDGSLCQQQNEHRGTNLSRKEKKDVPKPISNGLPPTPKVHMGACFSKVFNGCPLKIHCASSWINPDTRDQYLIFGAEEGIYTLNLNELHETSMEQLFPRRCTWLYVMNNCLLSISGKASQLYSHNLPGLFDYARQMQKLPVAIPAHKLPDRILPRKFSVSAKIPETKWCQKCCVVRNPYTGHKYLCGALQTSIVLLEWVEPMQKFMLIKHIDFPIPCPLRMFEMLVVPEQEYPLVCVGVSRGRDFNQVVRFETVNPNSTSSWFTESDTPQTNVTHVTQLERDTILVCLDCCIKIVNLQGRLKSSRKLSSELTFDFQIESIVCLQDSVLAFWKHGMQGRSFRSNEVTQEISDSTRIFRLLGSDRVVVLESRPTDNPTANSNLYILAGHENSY
UniProt Q6NSJ5: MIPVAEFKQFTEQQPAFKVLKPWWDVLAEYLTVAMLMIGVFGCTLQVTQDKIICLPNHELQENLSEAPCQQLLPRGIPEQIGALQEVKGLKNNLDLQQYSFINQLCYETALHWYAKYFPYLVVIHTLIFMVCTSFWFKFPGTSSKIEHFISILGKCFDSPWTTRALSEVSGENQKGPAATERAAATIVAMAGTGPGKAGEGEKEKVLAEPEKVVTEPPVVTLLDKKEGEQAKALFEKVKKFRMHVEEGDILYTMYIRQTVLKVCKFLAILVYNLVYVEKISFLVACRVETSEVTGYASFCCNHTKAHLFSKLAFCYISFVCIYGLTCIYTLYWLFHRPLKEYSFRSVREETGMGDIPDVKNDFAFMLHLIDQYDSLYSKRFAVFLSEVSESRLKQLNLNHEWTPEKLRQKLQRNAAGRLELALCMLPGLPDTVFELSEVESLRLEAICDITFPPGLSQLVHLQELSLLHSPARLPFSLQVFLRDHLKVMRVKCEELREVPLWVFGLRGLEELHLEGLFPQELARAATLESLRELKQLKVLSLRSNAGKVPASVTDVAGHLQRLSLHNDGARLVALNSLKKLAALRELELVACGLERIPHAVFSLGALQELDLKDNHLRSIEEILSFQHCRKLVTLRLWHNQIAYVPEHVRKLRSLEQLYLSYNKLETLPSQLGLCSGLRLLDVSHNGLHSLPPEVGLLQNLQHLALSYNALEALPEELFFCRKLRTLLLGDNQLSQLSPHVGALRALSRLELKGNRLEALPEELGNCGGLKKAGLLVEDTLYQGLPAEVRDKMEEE
UniProt Q969L4: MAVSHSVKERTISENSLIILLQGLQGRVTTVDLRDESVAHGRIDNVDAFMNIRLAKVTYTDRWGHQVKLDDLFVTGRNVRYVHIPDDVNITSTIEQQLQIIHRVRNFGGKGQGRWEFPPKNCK
UniProt Q9Y4Y9: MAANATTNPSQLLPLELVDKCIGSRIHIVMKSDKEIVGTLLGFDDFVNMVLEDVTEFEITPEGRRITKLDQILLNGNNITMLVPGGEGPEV
UniProt Q13164: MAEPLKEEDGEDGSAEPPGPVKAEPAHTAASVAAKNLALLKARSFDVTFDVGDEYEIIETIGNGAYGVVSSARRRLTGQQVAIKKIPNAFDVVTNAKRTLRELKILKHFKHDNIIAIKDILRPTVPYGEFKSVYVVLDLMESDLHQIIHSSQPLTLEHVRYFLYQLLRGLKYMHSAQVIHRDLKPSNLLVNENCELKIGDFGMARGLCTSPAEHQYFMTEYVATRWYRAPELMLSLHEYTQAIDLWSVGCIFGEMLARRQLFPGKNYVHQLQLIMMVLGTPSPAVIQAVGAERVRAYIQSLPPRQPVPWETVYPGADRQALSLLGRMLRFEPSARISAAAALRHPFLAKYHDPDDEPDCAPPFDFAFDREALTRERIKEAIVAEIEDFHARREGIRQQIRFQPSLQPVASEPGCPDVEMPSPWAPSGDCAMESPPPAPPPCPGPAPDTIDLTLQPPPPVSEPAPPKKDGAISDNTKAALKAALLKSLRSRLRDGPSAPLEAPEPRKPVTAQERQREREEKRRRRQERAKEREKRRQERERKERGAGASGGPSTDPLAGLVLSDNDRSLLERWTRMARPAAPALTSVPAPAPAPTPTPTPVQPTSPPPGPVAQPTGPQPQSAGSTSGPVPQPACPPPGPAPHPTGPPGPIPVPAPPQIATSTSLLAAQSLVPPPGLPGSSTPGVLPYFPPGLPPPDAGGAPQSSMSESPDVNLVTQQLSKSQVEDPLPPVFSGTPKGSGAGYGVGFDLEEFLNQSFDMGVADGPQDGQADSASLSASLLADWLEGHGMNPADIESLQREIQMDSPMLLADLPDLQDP
UniProt O15525: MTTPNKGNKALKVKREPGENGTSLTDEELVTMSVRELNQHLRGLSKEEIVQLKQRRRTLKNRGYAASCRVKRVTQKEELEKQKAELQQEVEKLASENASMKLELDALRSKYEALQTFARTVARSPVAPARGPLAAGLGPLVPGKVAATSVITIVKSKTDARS
UniProt Q9H8J5: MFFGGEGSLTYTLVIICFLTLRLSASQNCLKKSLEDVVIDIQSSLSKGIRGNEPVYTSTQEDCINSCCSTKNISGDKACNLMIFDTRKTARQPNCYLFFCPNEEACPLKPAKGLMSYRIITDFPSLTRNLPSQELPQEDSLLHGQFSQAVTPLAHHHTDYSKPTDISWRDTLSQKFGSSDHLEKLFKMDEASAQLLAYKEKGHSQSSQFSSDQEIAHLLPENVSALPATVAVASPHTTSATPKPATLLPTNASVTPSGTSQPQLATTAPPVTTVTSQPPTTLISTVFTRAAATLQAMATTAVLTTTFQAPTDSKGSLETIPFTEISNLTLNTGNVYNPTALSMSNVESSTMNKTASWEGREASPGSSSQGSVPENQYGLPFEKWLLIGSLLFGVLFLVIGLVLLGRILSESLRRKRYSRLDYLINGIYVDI
UniProt Q9ULX9: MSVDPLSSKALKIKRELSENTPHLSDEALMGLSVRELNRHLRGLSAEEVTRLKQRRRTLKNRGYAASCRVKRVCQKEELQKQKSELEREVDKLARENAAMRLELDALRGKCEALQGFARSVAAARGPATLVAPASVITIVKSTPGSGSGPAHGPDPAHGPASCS

The list shows a part of the results.

Compound in the first assay: C#Cc1cccc(Nc2ncnc3cc(OCCOC)c(OCCOC)cc23)c1 [erlotinib]
Briefly: log2 fold change, soluble protein after heating vs DMSO (PISA); higher = thermal stabilisation; K562 cells, 10 uM, 30 min; active = over 0.2 and 3.5 SD of the protein, either way, in both replicates (recomputed). The essentials: (§1)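 Values are thermal stability changes relative to control samples and are taken from duplicates. They are stated as log2 fold changes. Before quantification by TMTpro 16plex LC-MS/MS with equalised channel sums, K562 cells at 2×10^6 cells/mL were treated with 10 μM compound for 30 min, heated in aliquots for 3 min across 48°C-58°C, pooled, extracted in PBS with 0.5% NP-40 at 4°C, and centrifuged at 21,000xg for 90 min to give the soluble supernatant.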
Turning to LRRC8B (UniProt Q6P9F7), the log2 fold change is inactive: -0.187.

As to MAGEA1 (UniProt P43355), the log2 fold change was inactive: 0.055.

As for MAP7D3 (UniProt Q8IWC1), the log2 fold change was inactive: 0.008.

Turning to MAP3K3 isoform 2 (UniProt Q99759), the log2 fold change was inactive: -0.005.

Turning to LYRM1 (UniProt O43325), the log2 fold change was inactive: 0.026.

MAML1 (UniProt Q92585): the log2 fold change was inactive: 0.369.

With MAP4K3 (UniProt Q8IVH8), the log2 fold change was inactive: -0.032.

On to LRRC8E (UniProt Q6NSJ5), for which the log2 fold change was inactive: -0.064.

With LSM10 (UniProt Q969L4), the log2 fold change was inactive: -0.039.

Regarding LSM5 (UniProt Q9Y4Y9), the log2 fold change was inactive: -0.013.

With MAPK11 (UniProt Q15759), the log2 fold change was inactive: 0.169.

Regarding MAML2 (UniProt Q8IZL2), the log2 fold change was inactive: -0.157.

Compound in another assay: C/C(=N\NC(=O)C1=CC(=CC=C1)S(=O)(=O)N2CCOCC2)/C3=C(C=CC(=C3)Cl)O
The description is as above. The gist of the method:
as §1
For the target MAGI3 isoform 1 (UniProt Q5TCQ9), the log2 fold change was inactive: -0.352.

For the target LSM14A, A0A140TA76, the log2 fold change was inactive: 0.16.

In the case of MAPK7 (UniProt Q13164), the log2 fold change was inactive: 0.095.

LRRCC1 (UniProt Q9C099): the log2 fold change was active: -0.671.

Turning to MAFG (UniProt O15525), the log2 fold change was inactive: -0.128.

On to MAPRE3 isoform 2 (UniProt Q9UPY8), for which the log2 fold change was inactive: -0.003.

On to MAGEB10 (UniProt Q96LZ2), for which the log2 fold change is inactive: -0.21.

Take MANSC1 (UniProt Q9H8J5): the log2 fold change is inactive: -0.005.

For MAFF (UniProt Q9ULX9), the log2 fold change is inactive: -0.051.

Take MAN2B1 (UniProt M0QYZ1): the log2 fold change is inactive: -0.257.

On to MAP2K5 (UniProt Q13163), for which the log2 fold change is inactive: 0.021.

For MAP3K10 (UniProt Q02779), the log2 fold change is inactive: 0.12.

Compound in the next assay: C1=CC(=C(C=C1Cl)C2=NC3=NC=CN=C3C(=N2)NC4=CC=NC=C4)F
Described as above. The gist of the method:
as §1
For the target LRRC8B (UniProt Q6P9F7), the log2 fold change was inactive: -0.025.

For MAGEA1 (UniProt P43355), the log2 fold change is inactive: -0.097.

For MAGI3 isoform 1 (UniProt Q5TCQ9), the log2 fold change was inactive: -0.19.

Consider MAP7D3 (UniProt Q8IWC1), for which the log2 fold change was inactive: -0.513.

MARCHF3 (UniProt Q86UD3): the log2 fold change is inactive: -0.188.

MAP3K3 isoform 2 (UniProt Q99759): the log2 fold change was inactive: 0.

In the case of LSR (UniProt M0QZL9), the log2 fold change was inactive: 0.029.

With LYST (UniProt Q99698), the log2 fold change was inactive: -0.26.

Turning to LYRM1 (UniProt O43325), the log2 fold change was inactive: 0.01.

For MAPKAP1 (UniProt Q9BPZ7), the log2 fold change is inactive: -0.018.

Consider MAML1 (UniProt Q92585), for which the log2 fold change is inactive: 0.004.

In the case of MAPK7 (UniProt Q13164), the log2 fold change was inactive: 0.02.

Regarding MAFG (UniProt O15525), the log2 fold change is inactive: 0.022.

For LRRC8E (UniProt Q6NSJ5), the log2 fold change is inactive: -0.052.

For the target MAN2B1 (UniProt M0QYZ1), the log2 fold change was inactive: -0.296.

For LSM5 (UniProt Q9Y4Y9), the log2 fold change is inactive: 0.066.

Compound in another assay: C1=CC(=CC=C1C2=NC3=C(N2)C=C(C=C3)C(=O)N)OC4=CC=C(C=C4)Cl
Described as above. The essentials:
as §1
For the target LRRC8B (UniProt Q6P9F7), the log2 fold change is inactive: 0.001.

As to MAGEA1 (UniProt P43355), the log2 fold change is inactive: 0.006.

Take MAP7D3 (UniProt Q8IWC1): the log2 fold change is inactive: 0.067.

For the target MAP3K3 isoform 2 (UniProt Q99759), the log2 fold change was inactive: 0.093.

As to LYRM1 (UniProt O43325), the log2 fold change was inactive: 0.053.

In the case of MAML1 (UniProt Q92585), the log2 fold change is inactive: 0.082.

For the target MAP4K3 (UniProt Q8IVH8), the log2 fold change was inactive: 0.04.

For the target LRRC8E (UniProt Q6NSJ5), the log2 fold change was inactive: -0.049.

Regarding LSM10 (UniProt Q969L4), the log2 fold change is inactive: 0.323.

In the case of LSM5 (UniProt Q9Y4Y9), the log2 fold change is inactive: -0.001.

Take MAPK11 (UniProt Q15759): the log2 fold change is inactive: -0.28.

With MAML2 (UniProt Q8IZL2), the log2 fold change is inactive: -0.201.

Compound in a further assay: C1=CC2=C(C=CC(=C2)/C=C\3/C(=O)NC(=NCC4=CC=CS4)S3)N=C1
The description is as above. The essentials:
as §1
With MAGI3 isoform 1 (UniProt Q5TCQ9), the log2 fold change was inactive: -0.025.

Turning to LSM14A, A0A140TA76, the log2 fold change is inactive: -0.123.

With MAPK7 (UniProt Q13164), the log2 fold change was inactive: 0.

With LRRCC1 (UniProt Q9C099), the log2 fold change is inactive: 0.088.

For MAFG (UniProt O15525), the log2 fold change was inactive: -0.028.

Take MAPRE3 isoform 2 (UniProt Q9UPY8): the log2 fold change was inactive: -0.18.

For the target MAGEB10 (UniProt Q96LZ2), the log2 fold change was inactive: -0.078.

Regarding MANSC1 (UniProt Q9H8J5), the log2 fold change is inactive: -0.057.

For MAFF (UniProt Q9ULX9), the log2 fold change was inactive: 0.042.

For MAN2B1 (UniProt M0QYZ1), the log2 fold change is inactive: 0.186.

Consider MAP2K5 (UniProt Q13163), for which the log2 fold change is inactive: 0.277.

Turning to MAP3K10 (UniProt Q02779), the log2 fold change was inactive: -0.082.

Compound in the next assay: C1=CC2=NC=CN=C2C=C1/C=C/3\C(=O)NC(=O)S3
Described as above. The essentials:
as §1
On to LRRC8B (UniProt Q6P9F7), for which the log2 fold change is inactive: 0.122.

As for MAGEA1 (UniProt P43355), the log2 fold change was inactive: 0.043.

For the target MAGI3 isoform 1 (UniProt Q5TCQ9), the log2 fold change was inactive: 0.015.

On to MAP7D3 (UniProt Q8IWC1), for which the log2 fold change is inactive: -0.063.

Turning to MAP4K2 (UniProt Q12851), the log2 fold change is inactive: -0.122.

In the case of MARCHF3 (UniProt Q86UD3), the log2 fold change is inactive: -0.073.

For LYST (UniProt Q99698), the log2 fold change is inactive: 0.05.

With LYRM1 (UniProt O43325), the log2 fold change was inactive: -0.03.

As to MAP4K3 (UniProt Q8IVH8), the log2 fold change was inactive: 1.22.

Turning to LRRC8E (UniProt Q6NSJ5), the log2 fold change was inactive: 0.129.

Turning to MAFF (UniProt Q9ULX9), the log2 fold change was inactive: -0.046.

In the case of LSM10 (UniProt Q969L4), the log2 fold change is inactive: 0.024.

Consider LSM5 (UniProt Q9Y4Y9), for which the log2 fold change is inactive: -0.093.

On to MAP3K10 (UniProt Q02779), for which the log2 fold change was inactive: 0.046.
